Results on one molecule are retold here after publication PMC11265163.

These are yes or no findings as the source states them, for the method shown. In cells and extracts the contact can be indirect. Some binding calls cover weakened binding; strength is not graded here.

Assay [1] has as its target T1, PARP4-Fragment 1 (amino acid residues 1-622) (UniProt Q9UKK3).
T1 sequence: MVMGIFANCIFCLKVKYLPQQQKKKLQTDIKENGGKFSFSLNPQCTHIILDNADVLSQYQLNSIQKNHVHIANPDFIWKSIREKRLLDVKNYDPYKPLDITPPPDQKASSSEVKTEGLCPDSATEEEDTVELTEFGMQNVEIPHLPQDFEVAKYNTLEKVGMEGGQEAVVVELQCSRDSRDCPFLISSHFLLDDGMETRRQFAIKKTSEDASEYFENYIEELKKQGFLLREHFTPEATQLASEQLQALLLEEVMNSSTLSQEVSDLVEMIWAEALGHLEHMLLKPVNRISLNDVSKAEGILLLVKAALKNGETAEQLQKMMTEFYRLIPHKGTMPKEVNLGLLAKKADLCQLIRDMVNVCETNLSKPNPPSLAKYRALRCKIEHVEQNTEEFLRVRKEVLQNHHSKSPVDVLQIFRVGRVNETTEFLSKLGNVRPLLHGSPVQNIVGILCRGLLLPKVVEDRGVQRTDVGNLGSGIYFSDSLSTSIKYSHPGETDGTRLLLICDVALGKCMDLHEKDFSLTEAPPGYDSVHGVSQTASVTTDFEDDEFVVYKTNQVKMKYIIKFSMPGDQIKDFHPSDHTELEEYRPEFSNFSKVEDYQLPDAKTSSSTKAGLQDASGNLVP
In words: co-IP; FLAG immunoprecipitation of exogenously introduced FLAG-tagged PARP4 fragments or domain-deletion mutants from HEK293T cells; endogenous hnRNPM detected.

Assay [2] addresses T2, PARP4-Fragment 3 (amino acid residues 1115-1724) (UniProt Q9UKK3).
T2 sequence: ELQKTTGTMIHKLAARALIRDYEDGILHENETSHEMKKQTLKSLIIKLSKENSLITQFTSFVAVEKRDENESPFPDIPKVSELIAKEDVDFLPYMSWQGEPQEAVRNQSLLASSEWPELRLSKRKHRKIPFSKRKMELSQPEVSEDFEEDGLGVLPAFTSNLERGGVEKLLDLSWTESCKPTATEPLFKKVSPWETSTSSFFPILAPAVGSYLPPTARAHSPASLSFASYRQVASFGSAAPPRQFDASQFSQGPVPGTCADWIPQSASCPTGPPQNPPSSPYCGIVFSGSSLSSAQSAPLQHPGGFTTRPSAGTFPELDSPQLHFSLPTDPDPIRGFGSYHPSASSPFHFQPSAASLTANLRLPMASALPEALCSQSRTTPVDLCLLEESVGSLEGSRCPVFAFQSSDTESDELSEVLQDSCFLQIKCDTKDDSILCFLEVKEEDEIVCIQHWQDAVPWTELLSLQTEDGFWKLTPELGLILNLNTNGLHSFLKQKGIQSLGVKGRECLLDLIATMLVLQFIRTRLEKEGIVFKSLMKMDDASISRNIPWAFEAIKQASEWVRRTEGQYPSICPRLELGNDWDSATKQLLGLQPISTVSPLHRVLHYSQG
Described as above.

For assay [3], the target named is T3, PARP4-Fragment 2 (amino acid residues 623-1114) (UniProt Q9UKK3).
T3 sequence: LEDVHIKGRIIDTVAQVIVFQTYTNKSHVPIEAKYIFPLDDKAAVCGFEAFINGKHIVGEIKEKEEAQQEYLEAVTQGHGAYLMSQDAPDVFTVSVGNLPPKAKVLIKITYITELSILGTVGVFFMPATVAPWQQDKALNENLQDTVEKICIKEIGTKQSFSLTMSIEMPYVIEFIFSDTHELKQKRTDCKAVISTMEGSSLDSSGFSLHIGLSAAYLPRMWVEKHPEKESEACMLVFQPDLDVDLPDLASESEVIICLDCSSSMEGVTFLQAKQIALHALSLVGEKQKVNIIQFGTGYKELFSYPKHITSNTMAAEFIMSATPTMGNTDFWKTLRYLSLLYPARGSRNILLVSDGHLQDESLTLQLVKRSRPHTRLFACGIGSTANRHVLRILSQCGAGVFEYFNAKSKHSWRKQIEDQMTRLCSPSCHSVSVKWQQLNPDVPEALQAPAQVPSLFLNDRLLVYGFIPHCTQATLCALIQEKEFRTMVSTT
The description is as above.

Assay [4] addresses PARP4 (human (endogenous in iSAEC-K, A549 and patient-derived lung cell lines)) (UniProt Q9UKK3). In words: co-IP; endogenous proteins in whole-cell lysates (iSAEC-K; also A549, A611, A563, A653); lysis in 10 mM Tris-HCl pH 7.5, 150 mM NaCl, 0.5% NP-40, 0.25% sodium deoxycholate, 0.5 mM EDTA with 2 mM MgCl2 and 50 units/mL benzonase; 1 mg protein, 4 ug antibody overnight, Protein A/G Dynabeads ….

For assay [5] the target is unchanged. Briefly: co-IP; immunoprecipitation of endogenous PARP4 from the cytoplasmic and nuclear fractions of iSAEC-K cells; immunoblot. On the technique in general: A western blot detects proteins with antibodies after separation by electrophoresis.

B1: heterogeneous ribonucleoprotein M (hnRNPM) (protein, UniProt P52272 1-730)
chain: MAAGVEAAAEVAATEIKMEEESGAPGVPSGNGAPGPKGEGERPAQNEKRKEKNIKRGGNRFEPYANPTKRYRAFITNIPFDVKWQSLKDLVKEKVGEVTYVELLMDAEGKSRGCAVVEFKMEESMKKAAEVLNKHSLSGRPLKVKEDPDGEHARRAMQKVMATTGGMGMGPGGPGMITIPPSILNNPNIPNEIIHALQAGRLGSTVFVANLDYKVGWKKLKEVFSMAGVVVRADILEDKDGKSRGIGTVTFEQSIEAVQAISMFNGQLLFDRPMHVKMDERALPKGDFFPPERPQQLPHGLGGIGMGLGPGGQPIDANHLNKGIGMGNIGPAGMGMEGIGFGINKMGGMEGPFGGGMENMGRFGSGMNMGRINEILSNALKRGEIIAKQGGGGGGGSVPGIERMGPGIDRLGGAGMERMGAGLGHGMDRVGSEIERMGLVMDRMGSVERMGSGIERMGPLGLDHMASSIERMGQTMERIGSGVERMGAGMGFGLERMAAPIDRVGQTIERMGSGVERMGPAIERMGLSMERMVPAGMGAGLERMGPVMDRMATGLERMGANNLERMGLERMGANSLERMGLERMGANSLERMGPAMGPALGAGIERMGLAMGGGGGASFDRAIEMERGNFGGSFAGSFGGAGGHAPGVARKACQIFVRNLPFDFTWKMLKDKFNECGHVLYADIKMENGKSKGCGVVKFESPEVAERACRMMNGMKLSGREIDVRIDRNA
Consider B1, for which the binding entry in assay [1] was “no binding”; in assay [2], “binds”; in assay [3], “binds”; in assay [4], “binds”; in assay [5] it was “binds”.
